From PMC6527704 come the findings set out here.

By UniProt entry, the sequences of proteins in these tests, tags left out.
UniProt Q13547: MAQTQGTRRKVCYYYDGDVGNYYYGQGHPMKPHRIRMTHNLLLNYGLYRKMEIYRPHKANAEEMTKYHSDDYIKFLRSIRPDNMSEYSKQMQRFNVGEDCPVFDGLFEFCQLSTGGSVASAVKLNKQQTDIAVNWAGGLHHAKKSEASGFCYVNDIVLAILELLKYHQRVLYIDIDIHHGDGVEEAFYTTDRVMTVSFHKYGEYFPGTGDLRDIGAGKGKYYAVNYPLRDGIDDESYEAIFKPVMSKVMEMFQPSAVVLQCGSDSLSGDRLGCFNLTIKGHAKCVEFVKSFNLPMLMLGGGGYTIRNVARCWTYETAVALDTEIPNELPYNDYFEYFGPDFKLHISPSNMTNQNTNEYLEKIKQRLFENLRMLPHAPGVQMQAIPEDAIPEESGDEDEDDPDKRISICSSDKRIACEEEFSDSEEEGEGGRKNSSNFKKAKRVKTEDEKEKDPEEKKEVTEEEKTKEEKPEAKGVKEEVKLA

No constants are given. Whether binding was seen depends on the method and setting. In cells and extracts the contact can be indirect. Some binding calls cover weakened binding; strength is not graded here.

The target of test [1] is histone deacetylase 1 (human (endogenous in primary lung fibroblasts)) (UniProt Q13547). Description: co-IP; HDAC1-specific antibodies precipitate endogenous HDAC1 from nuclear protein extracts of Ctrl primary human lung fibroblasts; IgG as negative control; western blot. (In western blotting, separated proteins are transferred to a membrane and probed.)
Test [2] addresses T1, exosome-associated protein C1D (human (endogenous in primary lung fibroblasts)) (UniProt Q13901).
T1 sequence: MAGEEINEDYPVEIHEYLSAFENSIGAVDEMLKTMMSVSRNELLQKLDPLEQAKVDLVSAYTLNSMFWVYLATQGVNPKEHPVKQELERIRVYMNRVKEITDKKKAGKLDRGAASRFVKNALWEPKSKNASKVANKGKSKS
Description: co-IP; C1D-specific antibodies precipitate endogenous C1D from nuclear protein extracts of IPF primary human lung fibroblasts transfected with a dominant-negative EP300 (dnEP300, D1399Y) expression construct; western blot.

The target in test [3] is T1, exosome-associated protein C1D (human (endogenous in primary lung fibroblasts)). Description: co-sedimentation; 5-40% sucrose gradient ultracentrifugation (16 h 30 min, 132,000 x g) of nuclear extracts from Ctrl primary human lung fibroblasts in native nuclear lysis buffer (100 mM NaCl, 50 mM Tris-HCl pH 7.0); ten fractions analysed by western blot; the complex was also reconstituted in IPF fibroblasts transfected with MIRLET7D.

For test [4] the target is unchanged. Description: co-IP; C1D-specific antibodies precipitate endogenous C1D from nuclear protein extracts of IPF primary human lung fibroblasts treated with the EP300 inhibitor CBP30 (EP300inh); western blot.

B1: exosome-associated protein C1D (protein, UniProt Q13901 1-141)
chain: T1 sequence
As for B1, the binding result in test [1] was “binds”.

B2: nuclear-specific exosome subunit EXOSC10 (protein, UniProt Q01780 1-885)
chain: MAPPSTREPRVLSATSATKSDGEMVLPGFPDADSFVKFALGSVVAVTKASGGLPQFGDEYDFYRSFPGFQAFCETQGDRLLQCMSRVMQYHGCRSNIKDRSKVTELEDKFDLLVDANDVILERVGILLDEASGVNKNQQPVLPAGLQVPKTVVSSWNRKAAEYGKKAKSETFRLLHAKNIIRPQLKFREKIDNSNTPFLPKIFIKPNAQKPLPQALSKERRERPQDRPEDLDVPPALADFIHQQRTQQVEQDMFAHPYQYELNHFTPADAVLQKPQPQLYRPIEETPCHFISSLDELVELNEKLLNCQEFAVDLEHHSYRSFLGLTCLMQISTRTEDFIIDTLELRSDMYILNESLTDPAIVKVFHGADSDIEWLQKDFGLYVVNMFDTHQAARLLNLGRHSLDHLLKLYCNVDSNKQYQLADWRIRPLPEEMLSYARDDTHYLLYIYDKMRLEMWERGNGQPVQLQVVWQRSRDICLKKFIKPIFTDESYLELYRKQKKHLNTQQLTAFQLLFAWRDKTARREDESYGYVLPNHMMLKIAEELPKEPQGIIACCNPVPPLVRQQINEMHLLIQQAREMPLLKSEVAAGVKKSGPLPSAERLENVLFGPHDCSHAPPDGYPIIPTSGSVPVQKQASLFPDEKEDNLLGTTCLIATAVITLFNEPSAEDSKKGPLTVAQKKAQNIMESFENPFRMFLPSLGHRAPVSQAAKFDPSTKIYEISNRWKLAQVQVQKDSKEAVKKKAAEQTAAREQAKEACKAAAEQAISVRQQVVLENAAKKRERATSDPRTTEQKQEKKRLKISKKPKDPEPPEKEFTPYDYSQSDFKAFAGNSKSKVSSQFDPNKQTPSGKKCIAAKKIKQSVGNKSMSFPTGKSDRGFRYNWPQR
As to B2, the binding result in test [2], in test [3], in test [1] and in test [4] was “binds” in each case.
